# In the supplement of paper PMC3682954:
# “And” between values parts separate entries of the source, which are not always exact repeats. Identical values can stand only once. Counter-ions that a name gives are not always drawn. ± gives the standard deviation of the averaged measurements. This is one part of the list. Repeats are few or missing, and single values can be far off.
# System: RAW 264.7
# Assay: cell viability (MTT) relative to vehicle control; higher = more viable cells
# Conditions: stimulus: HMGB1 5 ug/ml, 18 h
# [1] = compound concentration: 1 ug/ml
Structure (SMILES),cell viability [1],cell viability (compound concentration: 3 uM)
O=c1ccc2cc3ccoc3cc2o1 [Psoralen],91.9%,
c1ccc2c(c1)CCCC2C1=NCCN1 (stereo not given) [Tetrahydrozoline hydrochloride],,112 ± 2.9%
c1ccc2c(c1)CCCC2C1=NCCN1 (stereo not given),,103%
C[C@@H](O)[C@H]1C(=O)N2C(C(=O)O)=C(SCCNC=N)C[C@H]12 [Imipenem],,110 ± 12%
C[C@@H](O)[C@H]1C(=O)N2C(C(=O)O)=C(SCCNC=N)C[C@H]12 [Imipenem monohydrate],,101%
CCCCN1C[C@H](O)[C@@H](O)[C@H](O)[C@H]1CO [Miglustat],,93.1%
N[C@@H](CC(=O)O)C(=O)O [L-Aspartic acid],,110%
CC(C)(C)C(=O)OCOC(=O)[C@@H]1N2C(=O)[C@@H](/N=C/N3CCCCCC3)[C@H]2SC1(C)C [Pivmecillinam hydrochloride],,89.2%
"OCC(O)CN1CCN(c2ccccc2)CC1 (racemic) [Dropropizine (R,S)]",,96.2%
CNc1ncnc2c1ncn2[C@@H]1O[C@H](CO)[C@@H](O)[C@H]1O [N6-Methyladenosine],,106%
CNc1ncnc2c1ncn2[C@@H]1O[C@H](CO)[C@@H](O)[C@H]1O [N6-methyladenosine],,93.5%
"CC1(C)CCC=[N+]1[O-] [5,5-Dimethyl-1-pyrroline-N-oxide]",,107%
CCn1cc(C(=O)O)c(=O)c2cc(F)c(N3CCNCC3)nc21 [Enoxacin],,103.5 ± 0.21%
CCn1cc(C(=O)O)c(=O)c2cc(F)c(N3CCNCC3)nc21,,110%
CC(=O)OCC(=O)NCCCOc1cccc(CN2CCCCC2)c1 [Roxatidine acetate],,98.7%
CC(=O)OCC(=O)NCCCOc1cccc(CN2CCCCC2)c1 [Roxatidine Acetate HCl],,121%
CC(=O)OCC(=O)NCCCOc1cccc(CN2CCCCC2)c1,,99.7%
C=CCc1ccc(O)c(OC)c1,,110%
C=CCc1ccc(O)c(OC)c1 [Eugenol],95.5%,
C=CC(N)CCC(=O)O (racemic) [(±)-gamma-Vinyl GABA],,121%
O=C(O)C1CCNCC1 [Isonipecotic acid],,96.7%

Structure (SMILES),cell viability [1],cell viability (compound concentration: 3 uM)
Nc1ncnc2c1ncn2C1CC(O)C(CO)O1 (stereo not given) [2'-Deoxyadenosine monohydrate],93.8%,
Nc1ncnc2c1ncn2C1CC(O)C(CO)O1 (stereo not given) [2'-Deoxyadenosine hydrate],96.2%,
CC1(C)CCC(NC(=O)[C@@H](N)CCC(=O)O)CC1,,113%
CCCc1ncc(C[n+]2ccccc2C)c(N)n1 [Amprolium hydrochloride],,92.3%
CCCc1ncc(C[n+]2ccccc2C)c(N)n1,,105%
O=C1NC(=O)C(c2ccccc2[N+](=O)[O-])=C1Nc1ccc(O)c(Cl)c1,,120%
CC(C)CSC[C@H]1O[C@@H](n2cnc3c(N)ncnc32)[C@H](O)[C@@H]1O [5'-Isobutylthio-5'-deoxyadenosine],101%,
COc1ccc2c(C)cc(=O)oc2c1 [7-methoxy-4-methylcoumarin],95.3%,
O=C1OC(c2ccc(O)cc2)(c2ccc(O)cc2)c2ccccc21,,107%
C[C@@H]1CN(CCCn2c3ccccc3c3ccccc32)C[C@H](C)N1 [Rimcazole],,93.2%
O=C(O)CN(CCN(CC(=O)O)CC(=O)O)CC(=O)O.[Na+].[Na+].[Na+],,112%
CC(C(=O)O)c1cccc(Oc2ccccc2)c1 (stereo not given) [Fenoprofen],,93%
CC(C(=O)O)c1cccc(Oc2ccccc2)c1 (stereo not given) [Fenoprofen calcium salt dihydrate],,125%
CC(C(=O)O)c1cccc(Oc2ccccc2)c1 (stereo not given),,110%
Oc1ccc(C2CNCCc3c2cc(O)c(O)c3Cl)cc1 (stereo not given),,92.1%
Oc1ccc(C2CNCCc3c2cc(O)c(O)c3Cl)cc1 (stereo not given) [Fenoldopam bromide],,106%
Oc1ccc(C2CNCCc3c2cc(O)c(O)c3Cl)cc1 (stereo not given) [Fenoldopam],,104%
CCc1ccc(CCOc2ccc(CC3SC(=O)NC3=O)cc2)nc1 (stereo not given) [Pioglitazone],,110 ± 29%
CC[n+]1c(/C=C/C=C2/N(C)c3ccccc3C2(C)C)sc2ccccc21,,27.3%
O=C(O)c1ccccc1-c1c2cc(I)c(=O)c(I)c-2oc2c(I)c(O)c(I)cc12,,119%
CC(C)(C)c1ccc(/C=C/C(=O)Nc2ccc3c(c2)OCCO3)cc1,,114%

Structure (SMILES),cell viability [1],cell viability (compound concentration: 3 uM)
NC(N)=NCCCC(N)C(=O)O (stereo not drawn) [D(-)-Arginine],102%,
Cc1ccc(N(CC2=NCCN2)c2cccc(O)c2)cc1,,104%
Cc1ccc(N(CC2=NCCN2)c2cccc(O)c2)cc1 [Phentolamine],,106%
Cc1ccc(N(CC2=NCCN2)c2cccc(O)c2)cc1 [Phentolamine mesylate],,110%
Cc1ccc(N(CC2=NCCN2)c2cccc(O)c2)cc1 [Phentolamine hydrochloride],,104%
COC(=O)CCCC[C@@H]1SC[C@@H]2NC(=O)N[C@@H]21 [Biotin methyl ester],94.5%,
CC(C)NCC(O)c1ccc(O)c(O)c1 (racemic) [(±)-Isoproterenol hydrochloride],,87.5%
CC(C)NCC(O)c1ccc(O)c(O)c1 (racemic) [Isoproterenol (Rac)],,114%
CO[C@H]1/C=C/O[C@@]2(C)Oc3c(C)c(O)c4c(O)c(c(/C=N/N5CCN(C)CC5)c(O)c4c3C2=O)NC(=O)/C(C)=C\C=C\[C@H](C)[C@H](O)[C@@H](C)[C@@H](O)[C@@H](C)[C@H](OC(C)=O)[C@@H]1C,,101%
CO[C@H]1/C=C/O[C@@]2(C)Oc3c(C)c(O)c4c(O)c(c(/C=N/N5CCN(C)CC5)c(O)c4c3C2=O)NC(=O)/C(C)=C\C=C\[C@H](C)[C@H](O)[C@@H](C)[C@@H](O)[C@@H](C)[C@H](OC(C)=O)[C@@H]1C [Rifampicin],91.2%,97.6 ± 14%
CCCSc1ccc2[nH]c(NC(=O)OC)nc2c1,,76.1%
CCCSc1ccc2[nH]c(NC(=O)OC)nc2c1 [Albendazole],,86 ± 4.4%
Cc1c(Cl)cccc1Nc1ccccc1C(=O)O,,104%
Cc1c(Cl)cccc1Nc1ccccc1C(=O)O [Tolfenamic acid],,95.2 ± 8.6%
CC1=C(/C=C/C(C)=C/C=C/C(C)=C/C=C/C=C(C)/C=C/C=C(C)/C=C/C2=C(C)CCCC2(C)C)C(C)(C)CCC1 [beta-CAROTENE],,102%
CC[C@H]1OC(=O)[C@H](C)[C@@H](O[C@H]2C[C@@](C)(OC)[C@@H](O)[C@H](C)O2)[C@H](C)[C@@H](O[C@@H]2O[C@H](C)C[C@H](N(C)C)[C@H]2O)[C@](C)(O)C[C@@H](C)C(=O)[C@H](C)[C@@H](O)[C@]1(C)O [Erythromycin],,105%
CC[C@H]1OC(=O)[C@H](C)[C@@H](O[C@H]2C[C@@](C)(OC)[C@@H](O)[C@H](C)O2)[C@H](C)[C@@H](O[C@@H]2O[C@H](C)C[C@H](N(C)C)[C@H]2O)[C@](C)(O)C[C@@H](C)C(=O)[C@H](C)[C@@H](O)[C@]1(C)O [(-)-Erythromycin hydrate],81.3%,
CC[C@H]1OC(=O)[C@H](C)[C@@H](O[C@H]2C[C@@](C)(OC)[C@@H](O)[C@H](C)O2)[C@H](C)[C@@H](O[C@@H]2O[C@H](C)C[C@H](N(C)C)[C@H]2O)[C@](C)(O)C[C@@H](C)C(=O)[C@H](C)[C@@H](O)[C@]1(C)O,,116% and 110%
CC(C(=O)O)c1ccc(CC2CCCC2=O)cc1 (stereo not given),,98.4%
CC(C(=O)O)c1ccc(CC2CCCC2=O)cc1 (stereo not given) [loxoprofen],,95%
O=C(O)CCc1nc(-c2ccccc2)c(-c2ccccc2)o1 [Oxaprozin],,103 ± 5.6%

Structure (SMILES),cell viability [1],cell viability (compound concentration: 3 uM)
O=C(O)CCc1nc(-c2ccccc2)c(-c2ccccc2)o1,,95.1 ± 11%
O=C1c2ccccc2C(=O)C1c1ccccc1,,106%
O=C1c2ccccc2C(=O)C1c1ccccc1 [Phenindione],,80.2%
CC(C)[C@@H](C)/C=C/[C@@H](C)[C@H]1CC[C@H]2C3=CC=C4C[C@@H](O)CC[C@]4(C)[C@H]3CC[C@]12C [Ergosterol],109%,
Clc1ccc2c(c1)C(N1CCNCC1)=Nc1ccccc1O2 [Amoxapine],,100 ± 2.8%
Clc1ccc2c(c1)C(N1CCNCC1)=Nc1ccccc1O2,,95%
OCCN1CCN(CCCN2c3ccccc3Sc3ccc(C(F)(F)F)cc32)CC1 [Fluphenazine dihydrochloride],,103 ± 6.3%
OCCN1CCN(CCCN2c3ccccc3Sc3ccc(C(F)(F)F)cc32)CC1,,97 ± 5.8%
OCCN1CCN(CCCN2c3ccccc3Sc3ccc(C(F)(F)F)cc32)CC1 [Fluphenazine],,121%
CC(C)(Oc1ccc(CCNC(=O)c2ccc(Cl)cc2)cc1)C(=O)O,,107%
CC(C)(Oc1ccc(CCNC(=O)c2ccc(Cl)cc2)cc1)C(=O)O [Bezafibrate],,105 ± 7.5%
NCCCCC(=O)O [5-Aminovaleric acid hydrochloride],,103%
c1ccc(CC2=NCCN2)cc1,,113%
c1ccc(CC2=NCCN2)cc1 [Tolazoline hydrochloride],,87.5%
O=C1C(c2c(O)[nH]c3ccccc23)=Nc2ccccc21,,72%
O=C(OCCN1CCOCC1)C1(c2ccccc2)CCCCC1,,102%
CC(C)C[C@H](NC(=O)[C@H](Cc1ccccc1)NC(=O)c1cnccn1)B(O)O [Bortezomib],,4.21%
COc1ccc(CC(C)NCC(O)c2ccc(O)c(NC=O)c2)cc1 (stereo not given) [Formoterol],,98.7%
COc1ccc(CC(C)NCC(O)c2ccc(O)c(NC=O)c2)cc1 (stereo not given) [Formoterol fumarate],,125%
COc1ccc(CC(C)NCC(O)c2ccc(O)c(NC=O)c2)cc1 (stereo not given),,93.9%
CCC(=O)O[C@H]1CC[C@H]2[C@@H]3CCc4cc(O)ccc4[C@H]3CC[C@]12C,,109%
